Experiment: general procedure: Fmoc solid-phase peptide synthesis; NovaSyn TG R resin; HCTU or HBTU with DIPEA; PyBOP/DIPEA
Conditions: whole synthesis, scale 100 mg resin portion of 0.18 mmol synthesis

Substance: VTHRLAGLLSRSGGVVKDNFVPTNVGSEAF-NH2
- isolated mass: 7 mg
